Reference: publication PMC4765350
No constants are given. Whether binding was seen depends on the method and setting. A result given as binding can be weak or reduced; the word gives no strength. Tags and fused reporters may be left off the sequences shown.

Target: BtuC2D2 mutant E159Q (E. coli)
Assay: SPR; fresh BtuC2D2 E159Q or the same preparation incubated for 7 hours at the ATP-hydrolyzing conditions, immobilised; 0.5 uM apo BtuF injected; both purified

B1: BtuF, substrate binding protein (SBP) of the vitamin B12 transport system, FLAG-tagged (protein, UniProt P37028 23-266)
chain: APRVITLSPANTELAFAAGITPVGVSSYSDYPPQAQKIEQVSTWQGMNLERIVALKPDLVIAWRGGNAERQVDQLASLGIKVMWVDATSIEQIANALRQLAPWSPQPDKAEQAAQSLLDQYAQLKAQYADKPKKRVFLQFGINPPFTSGKESIQNQVLEVCGGENIFKDSRVPWPQVSREQVLARSPQAIVITGGPDQIPKIKQYWGEQLKIPVIPLTSDWFERASPRIILAAQQLCNALSQVD
binding: binds
